Results on 1 molecule are retold here after publication PMC3568036.

The target of this assay is glutathione-S-transferase (GST)-tagged EspO1-2 (EHEC O157:H7 Sakai). As to the kind of experiment: pull-down; GST-fused protein on glutathione-Sepharose 4B beads mixed with a cleared extract of E. coli MC1061 expressing the Flag-tagged effector; 2 h at 4°C; washed with RIPA buffer (25 mM Tris-HCl, 150 mM NaCl, 1% Nonidet P-40, pH 7.5); immunoblot with anti-Flag; only the target purified.

These are yes or no findings as the source states them, for the method shown. In cells and extracts the contact can be indirect. Tags and fused reporters may be left off the sequences shown.

B1: Flag-tagged EspG (protein, UniProt Q7DB50 1-381)
chain: MINGLNNDSASLVLDAAMKVNSGFKKSWDEMSCAEKLFKVLSFGLWNPTYSRSERQSFQELLTVLEPVYPLPNELGRVSARFSDGSSLRISVTNSELVEAEIRTANNEKITVLLESNEQNRLLQSLPIDRHMPYIQVHRALSEMDLTDTTSMRNLLGFTSKLSTTLIPHNAQTDPLSGPTPFSSIFMDTCRGLGNAKLSLNGVDIPANAQKLLRDALGLKDTHSSPTRNVIDHGISRHDAEQIARESSGSDKQKAEVVEFLCHPEAATAICSAFYQSFNVPALTLTHERISKASEYNAERSLDTPNACINISISQSSDGNIYVTSHTGVLIMAPEDRPNEMGMLTNRTSYEVPQGVKCIIDEMVSALQPRYAASETYLQNT
Turning to B1, the binding entry was “no binding”.
